From PMC10935238
No constants are given. Whether binding was seen depends on the method and setting. In cells and extracts the contact can be indirect. Some entries that bind do so weakly or less than the wild type. For some assays here: Where a sequence is shown, tags or fusion partners need not be part of it.

Protein sequences, listed by entry. Tags and fused reporters are not part of them.
UniProt Q07157: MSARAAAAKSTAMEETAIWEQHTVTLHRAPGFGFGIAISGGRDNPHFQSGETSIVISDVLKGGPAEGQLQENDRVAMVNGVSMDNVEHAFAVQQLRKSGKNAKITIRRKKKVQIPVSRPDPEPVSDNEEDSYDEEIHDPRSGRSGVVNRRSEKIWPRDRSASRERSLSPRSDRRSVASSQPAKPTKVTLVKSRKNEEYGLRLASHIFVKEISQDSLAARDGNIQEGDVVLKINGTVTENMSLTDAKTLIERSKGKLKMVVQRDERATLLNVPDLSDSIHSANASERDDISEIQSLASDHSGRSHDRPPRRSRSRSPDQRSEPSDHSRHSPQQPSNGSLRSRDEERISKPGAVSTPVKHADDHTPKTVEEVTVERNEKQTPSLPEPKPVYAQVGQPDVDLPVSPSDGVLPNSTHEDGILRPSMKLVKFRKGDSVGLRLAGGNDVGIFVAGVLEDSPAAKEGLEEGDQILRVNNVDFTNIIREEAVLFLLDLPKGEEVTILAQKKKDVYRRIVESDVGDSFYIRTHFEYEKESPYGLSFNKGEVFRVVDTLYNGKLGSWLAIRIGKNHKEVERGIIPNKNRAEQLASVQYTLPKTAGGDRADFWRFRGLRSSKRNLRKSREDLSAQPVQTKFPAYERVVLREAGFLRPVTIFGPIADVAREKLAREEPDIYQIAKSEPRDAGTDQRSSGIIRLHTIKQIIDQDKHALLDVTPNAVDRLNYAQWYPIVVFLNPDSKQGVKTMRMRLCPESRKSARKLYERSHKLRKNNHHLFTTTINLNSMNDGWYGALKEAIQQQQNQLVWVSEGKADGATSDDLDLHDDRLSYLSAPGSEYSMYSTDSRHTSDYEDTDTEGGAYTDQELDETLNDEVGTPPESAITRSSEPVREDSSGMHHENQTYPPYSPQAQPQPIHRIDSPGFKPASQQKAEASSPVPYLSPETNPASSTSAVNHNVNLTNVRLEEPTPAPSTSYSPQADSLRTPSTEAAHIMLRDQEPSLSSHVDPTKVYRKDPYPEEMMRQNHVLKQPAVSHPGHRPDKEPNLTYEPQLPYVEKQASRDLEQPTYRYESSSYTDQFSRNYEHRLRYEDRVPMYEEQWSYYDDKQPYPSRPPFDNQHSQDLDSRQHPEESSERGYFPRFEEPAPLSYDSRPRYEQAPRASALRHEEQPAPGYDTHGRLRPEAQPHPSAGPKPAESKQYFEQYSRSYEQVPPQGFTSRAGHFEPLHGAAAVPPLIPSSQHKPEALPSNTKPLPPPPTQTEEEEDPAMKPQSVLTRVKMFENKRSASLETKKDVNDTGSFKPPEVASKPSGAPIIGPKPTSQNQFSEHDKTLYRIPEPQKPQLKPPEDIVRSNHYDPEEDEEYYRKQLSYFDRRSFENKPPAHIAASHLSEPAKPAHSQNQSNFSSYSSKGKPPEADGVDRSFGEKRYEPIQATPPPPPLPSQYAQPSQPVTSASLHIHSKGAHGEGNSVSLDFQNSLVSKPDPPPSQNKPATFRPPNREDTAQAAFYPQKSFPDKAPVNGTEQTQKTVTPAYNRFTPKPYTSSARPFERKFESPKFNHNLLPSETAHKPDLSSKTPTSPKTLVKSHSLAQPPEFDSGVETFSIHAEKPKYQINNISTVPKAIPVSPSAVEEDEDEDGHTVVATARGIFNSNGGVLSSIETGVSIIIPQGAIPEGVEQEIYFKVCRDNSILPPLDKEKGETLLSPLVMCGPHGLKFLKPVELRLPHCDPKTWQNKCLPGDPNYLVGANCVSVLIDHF

Columns and labels:
[1] = target: T1, tridecapeptide (P0) … fused with GFP; test: co-IP; cell lysates incubated overnight at 4 °C with agarose beads coated with a GFP antibody; beads rinsed five times; immunoblot for ZO-1
T1 sequence: RASSRPRPDDLEI

[2] = target: T2, biotin-modified Cx43-derived tridecapeptide P1: (biotin-Lys) …; test: pull-down; biotin-modified peptide P1 incubated in lysates of ZO-1-transfected HEK293 cells at room temperature for 4 h; captured on streptavidin beads; beads rinsed five times; immunoblot for ZO-1; only the target purified
T2 sequence (peptide, biotin on the introduced lysine (biotin-Lys) before the recognition unit): KRASSRPRPDDLEI

Substance | binding [1] | binding [2]
zonula occludens-1 (ZO-1) in the lysate of the GFP immunoprecipitation (from UniProt Q07157 1-1748) | binds | –
zonula occludens-1 (ZO-1), overexpressed in HEK293 cells (from UniProt Q07157 1-1748) | – | binds
